# This is one part of the list. Single values are uncertain, as repeats are few or missing.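 Cells were imaged in 1,536-well plates, and nuclei stained with an antibody against cleaved PARP were counted against all DNA-stained nuclei to give the apoptosis fraction. Screening doses were chosen to leave most cells alive, and resting and induced cleaved-PARP levels differ strongly between cell lines.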
# Legend:
# Assay in all cases: cleaved PARP positive nuclei fraction relative to DMSO control; melanoma cells; higher = more apoptosis
# Settings in all cases: library dose: low library concentration; 72 h
# [1] = system: MZ2-MEL
# [2] = system: MeWo
# [3] = system: RPMI7951
# [4] = system: RVH-421
# [5] = system: SkMel28
# [6] = system: SkMel30
# [7] = system: SkMel5
# [8] = system: UACC257
# [9] = system: UACC62
Structure (SMILES),cleaved PARP positive nuclei fraction [1] [%],cleaved PARP positive nuclei fraction [2] [%],cleaved PARP positive nuclei fraction [3] [%],cleaved PARP positive nuclei fraction [4] [%],cleaved PARP positive nuclei fraction [5] [%],cleaved PARP positive nuclei fraction [6] [%],cleaved PARP positive nuclei fraction [7] [%],cleaved PARP positive nuclei fraction [8] [%],cleaved PARP positive nuclei fraction [9] [%]
"C[C@]12O[C@H](C[C@]1(O)CO)n1c3ccccc3c3c4c(c5c6ccccc6n2c5c31)CNC4=O [Lestaurtinib] + COc1ccc(-c2ccc3c(N4CCOCC4)nc(N4C[C@@H](C)O[C@@H](C)C4)nc3n2)cc1CO [KU0063794] (first compound 0.004 µM, partner dose 0.02 µM)",97.2,112,73.3,102,112,203,67.1,168,98.4
"NC(=O)Nc1cc(-c2cccc(F)c2)sc1C(=O)N[C@H]1CCCNC1 + Cc1cc(SCc2sc(-c3ccc(C(F)(F)F)c(F)c3)nc2C)ccc1OCC(=O)O [GW0742] (first compound 0.02 µM, partner dose 2 µM)",94.2,37.2,82.9,97.3,75.9,96.7,55.2,88.7,72.3
"O=C(CCCCCCC(=O)Nc1ccccc1)NO [vorinostat] + Cc1cc(SCc2sc(-c3ccc(C(F)(F)F)c(F)c3)nc2C)ccc1OCC(=O)O [GW0742] (first compound 0.08 µM, partner dose 2 µM)",67.8,24.3,24.5,12.1,352,12.5,82.3,101,80.1
"O=C(Nc1ccccc1)c1cc([N+](=O)[O-])ccc1Cl + C/C(O)=C(\C#N)C(=O)Nc1cc(Br)ccc1Br [LFM-A13] (first compound 2 µM, partner dose 2 µM)",254,34.2,142,45.3,262,10.4,64,225,41
"C[As](C)SC[C@H](NC(=O)CC[C@H](N)C(=O)O)C(=O)NCC(=O)O [Darinaparsin] + COC(=O)c1sccc1S(=O)(=O)Nc1ccc(Nc2ccccc2)cc1OC [GSK0660] (first compound 0.4 µM, partner dose 1 µM)",101,120,132,25.9,204,38.6,35.6,176,84.2
"O=C(Nc1cccc(Cl)c1)Nc1ncc(CCNc2ncnc3ccsc23)s1 + Cc1cc(SCc2sc(-c3ccc(C(F)(F)F)c(F)c3)nc2C)ccc1OCC(=O)O [GW0742] (first compound 0.0008 µM, partner dose 2 µM)",83.3,154,112,150,118,49.9,135,128,78.7
"Cn1nnc2c(C(N)=O)ncn2c1=O [temozolomide] + C/C(O)=C(\C#N)C(=O)Nc1cc(Br)ccc1Br [LFM-A13] (first compound 2 µM, partner dose 2 µM)",99,101,267,75.1,34.6,33.1,30.3,96.8,90.6
"C=CCn1c(=O)c2cnc(Nc3ccc(N4CCN(C)CC4)cc3)nc2n1-c1cccc(C(C)(C)O)n1 + Cc1cc(SCc2sc(-c3ccc(C(F)(F)F)c(F)c3)nc2C)ccc1OCC(=O)O [GW0742] (first compound 0.02 µM, partner dose 2 µM)",88.9,40.7,148,36.6,206,411,68.8,211,186
"C[As](C)SC[C@H](NC(=O)CC[C@H](N)C(=O)O)C(=O)NCC(=O)O [Darinaparsin] + CCCCCCCCCCCC1=C(O)C(=O)C=C(O)C1=O [Embelin] (first compound 0.4 µM, partner dose 1.2 µM)",240,70.9,76.2,27.4,161,27.2,116,230,74.9
"O=C(Nc1cccc(Cl)c1)Nc1ncc(CCNc2ncnc3ccsc23)s1 + O=C(Oc1ccc([N+](=O)[O-])cc1)N1CCC(C(O)(c2ccc3c(c2)OCO3)c2ccc3c(c2)OCO3)CC1 [JZL184] (first compound 0.0008 µM, partner dose 1 µM)",89.2,149,164,28.7,111,13.4,64.2,68.6,409
"Cc1cc(SCc2sc(-c3ccc(C(F)(F)F)c(F)c3)nc2C)ccc1OCC(=O)O + O=C(Oc1ccc([N+](=O)[O-])cc1)N1CCC(C(O)(c2ccc3c(c2)OCO3)c2ccc3c(c2)OCO3)CC1 [JZL184] (first compound 2 µM, partner dose 1 µM)",58.1,40.4,83.5,115,68.3,88.5,98,26.4,127
"C[C@]12O[C@H](C[C@]1(O)CO)n1c3ccccc3c3c4c(c5c6ccccc6n2c5c31)CNC4=O [Lestaurtinib] + N#Cc1c(O)c2c(-c3ccc(-c4ccccc4O)cc3)csc2[nH]c1=O [A769662] (first compound 0.004 µM, partner dose 2 µM)",96.5,88.7,128,36.6,143,69,137,249,138

# Rewritten with tabs: entries from further up
Structure (SMILES)	cleaved PARP positive nuclei fraction [1] [%]	cleaved PARP positive nuclei fraction [2] [%]	cleaved PARP positive nuclei fraction [3] [%]	cleaved PARP positive nuclei fraction [4] [%]	cleaved PARP positive nuclei fraction [5] [%]	cleaved PARP positive nuclei fraction [6] [%]	cleaved PARP positive nuclei fraction [7] [%]	cleaved PARP positive nuclei fraction [8] [%]	cleaved PARP positive nuclei fraction [9] [%]
C[As](C)SC[C@H](NC(=O)CC[C@H](N)C(=O)O)C(=O)NCC(=O)O [Darinaparsin] + COC(=O)c1sccc1S(=O)(=O)Nc1ccc(Nc2ccccc2)cc1OC [GSK0660] (first compound 0.4 µM, partner dose 1 µM)	101	120	132	25.9	204	38.6	35.6	176	84.2
O=C(Nc1cccc(Cl)c1)Nc1ncc(CCNc2ncnc3ccsc23)s1 + Cc1cc(SCc2sc(-c3ccc(C(F)(F)F)c(F)c3)nc2C)ccc1OCC(=O)O [GW0742] (first compound 0.0008 µM, partner dose 2 µM)	83.3	154	112	150	118	49.9	135	128	78.7
